Assay results: patent US20210332107A1
Positions count from the first letter of the chain named. No constants are given. Whether binding was seen depends on the method and setting. Some results given as binding are weak or reduced against the parent protein; the word gives no strength.

The chains behind the UniProt entries cited, without tags or fusion partners. Where a name states a change or a piece, a line headed by the entry shows the natural chain unless it says otherwise.
UniProt P02454: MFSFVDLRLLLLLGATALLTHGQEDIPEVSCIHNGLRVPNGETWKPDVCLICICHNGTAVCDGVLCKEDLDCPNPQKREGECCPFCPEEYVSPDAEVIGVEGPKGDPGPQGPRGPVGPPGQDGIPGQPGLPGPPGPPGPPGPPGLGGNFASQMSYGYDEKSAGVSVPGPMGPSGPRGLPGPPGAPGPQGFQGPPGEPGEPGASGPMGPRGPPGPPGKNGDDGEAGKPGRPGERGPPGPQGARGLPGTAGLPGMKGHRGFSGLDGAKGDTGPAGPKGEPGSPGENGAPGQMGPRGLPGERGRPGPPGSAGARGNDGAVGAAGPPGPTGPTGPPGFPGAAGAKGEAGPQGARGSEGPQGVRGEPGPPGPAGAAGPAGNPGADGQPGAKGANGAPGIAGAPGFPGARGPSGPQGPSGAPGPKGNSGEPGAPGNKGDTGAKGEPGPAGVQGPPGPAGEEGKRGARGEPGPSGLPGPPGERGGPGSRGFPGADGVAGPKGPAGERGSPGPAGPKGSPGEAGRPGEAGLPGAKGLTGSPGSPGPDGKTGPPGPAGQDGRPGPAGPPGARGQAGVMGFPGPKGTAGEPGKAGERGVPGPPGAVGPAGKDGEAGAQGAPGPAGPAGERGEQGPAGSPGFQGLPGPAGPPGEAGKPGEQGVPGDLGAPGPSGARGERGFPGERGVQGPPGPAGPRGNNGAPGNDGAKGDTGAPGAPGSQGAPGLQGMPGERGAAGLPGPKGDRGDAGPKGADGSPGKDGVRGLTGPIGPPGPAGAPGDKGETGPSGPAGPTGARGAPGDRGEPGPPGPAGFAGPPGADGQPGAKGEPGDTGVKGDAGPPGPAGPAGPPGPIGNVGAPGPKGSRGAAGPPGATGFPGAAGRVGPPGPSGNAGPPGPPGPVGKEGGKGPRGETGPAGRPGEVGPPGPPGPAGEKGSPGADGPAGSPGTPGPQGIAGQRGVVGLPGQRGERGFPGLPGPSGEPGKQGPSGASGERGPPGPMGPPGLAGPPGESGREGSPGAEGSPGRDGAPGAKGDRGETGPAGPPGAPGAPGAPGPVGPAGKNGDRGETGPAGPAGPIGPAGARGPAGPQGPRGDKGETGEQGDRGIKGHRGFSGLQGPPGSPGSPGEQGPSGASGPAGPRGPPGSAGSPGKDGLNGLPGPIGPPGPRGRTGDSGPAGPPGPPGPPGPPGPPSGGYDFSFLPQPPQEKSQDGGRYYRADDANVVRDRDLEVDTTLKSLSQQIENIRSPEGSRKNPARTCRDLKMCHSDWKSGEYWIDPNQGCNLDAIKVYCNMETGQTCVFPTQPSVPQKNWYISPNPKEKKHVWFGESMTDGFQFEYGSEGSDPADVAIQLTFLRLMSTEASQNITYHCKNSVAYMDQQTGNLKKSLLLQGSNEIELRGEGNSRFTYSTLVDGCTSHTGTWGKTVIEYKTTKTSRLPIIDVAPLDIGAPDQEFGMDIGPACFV
UniProt P02466: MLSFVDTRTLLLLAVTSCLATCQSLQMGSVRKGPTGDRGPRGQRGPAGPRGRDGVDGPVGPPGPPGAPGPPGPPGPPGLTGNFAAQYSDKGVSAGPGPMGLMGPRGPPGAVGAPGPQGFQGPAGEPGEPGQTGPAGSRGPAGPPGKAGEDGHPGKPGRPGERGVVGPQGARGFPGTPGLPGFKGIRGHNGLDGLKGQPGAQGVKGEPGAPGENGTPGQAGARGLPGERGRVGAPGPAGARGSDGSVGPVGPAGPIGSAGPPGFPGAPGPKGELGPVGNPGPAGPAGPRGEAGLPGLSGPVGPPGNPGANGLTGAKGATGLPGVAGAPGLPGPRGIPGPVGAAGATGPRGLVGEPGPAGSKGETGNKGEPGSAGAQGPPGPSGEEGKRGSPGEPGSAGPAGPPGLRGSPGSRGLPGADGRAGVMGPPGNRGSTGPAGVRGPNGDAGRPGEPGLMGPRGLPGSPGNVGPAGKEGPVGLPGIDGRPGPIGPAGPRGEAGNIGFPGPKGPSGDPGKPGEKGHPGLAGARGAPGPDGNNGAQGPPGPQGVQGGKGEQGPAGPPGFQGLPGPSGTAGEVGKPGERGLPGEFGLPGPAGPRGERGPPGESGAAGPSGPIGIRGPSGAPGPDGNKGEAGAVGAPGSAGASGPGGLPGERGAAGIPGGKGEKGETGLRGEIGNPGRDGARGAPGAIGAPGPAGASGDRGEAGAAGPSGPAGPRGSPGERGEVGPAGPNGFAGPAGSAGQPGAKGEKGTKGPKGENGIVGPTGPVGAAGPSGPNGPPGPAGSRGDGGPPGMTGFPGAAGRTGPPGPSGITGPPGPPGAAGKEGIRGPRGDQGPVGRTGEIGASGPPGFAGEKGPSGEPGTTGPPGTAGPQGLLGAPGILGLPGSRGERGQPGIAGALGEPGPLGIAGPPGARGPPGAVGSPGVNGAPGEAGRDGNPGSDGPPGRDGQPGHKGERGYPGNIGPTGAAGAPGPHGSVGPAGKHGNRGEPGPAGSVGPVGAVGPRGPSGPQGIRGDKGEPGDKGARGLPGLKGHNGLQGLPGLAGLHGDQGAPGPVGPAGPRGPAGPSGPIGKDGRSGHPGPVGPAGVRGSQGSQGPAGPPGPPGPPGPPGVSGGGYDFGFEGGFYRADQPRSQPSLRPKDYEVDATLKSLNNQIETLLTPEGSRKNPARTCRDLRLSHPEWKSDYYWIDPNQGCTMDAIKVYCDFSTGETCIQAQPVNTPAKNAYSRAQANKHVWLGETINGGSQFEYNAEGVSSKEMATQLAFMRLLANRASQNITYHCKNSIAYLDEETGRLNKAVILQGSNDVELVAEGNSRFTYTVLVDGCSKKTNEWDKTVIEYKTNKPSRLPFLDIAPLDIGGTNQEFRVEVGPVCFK

Target: rat collagen-I (rat) (UniProt P02454+P02466)
Test: ELISA; 96-well plate coated with rat collagen-I, PEDF incubated, bound PEDF detected with an anti-PEDF antibody

B1: wild type human pigment epithelium-derived factor (PEDF) (protein)
chain: QNPASPPEEGSPDPDSTGALVEEEDPFFKVPVNKLAAAVSNFGYDLYRVRSSTSPTTNVLLSPLSVATALSALSLGAEQRTESIIHRALYYDLISSPDIHGTYKELLDTVTAPQKNLKSASRIVFEKKLRIKSSFVAPLEKSYGTRPRVLTGNPRLDLQEINNWVQAQMKGKLARSTKEIPDEISILLLGVAHFKGQWVTKFDSRKTSLEDFYLDEERTVRVPMMSDPKAVLRYGLDSDLSCKIAQLPLTGSMSIIFFLPLKVTQNLTLIEESLTSEFIHDIDRELKTVQAVLTVPKLKLSYEGEVTKSLQEMKLQSLFDSPDFSKITGKPIKLTQVEHRAGFEWNEDGAGTTPSPGLQPAHLTFPLDYHLNQPFIFVLRDTDTGALLFIGKILDPRGP
Question: With B1 as the binder, how does the binding read?
Answer: binds

B2: engineered PEDF (6) (protein)
chain: B1 chain with G152K, A167K, A174K, E179K, D182K, E183K
Question: How did the binding turn out when B2 was run?
Answer: binds
